{
  "source": "PubChem BioAssay AID2508",
  "about": "(National Center for Advancing Translational Sciences (NCATS), 2010)",
  "note": "The shares of active, inactive and inconclusive entries below differ from those in the screen. A potency beside an inconclusive call is a rough fit, not a confirmed value. The source made the active and inactive calls. The call rests on the fitted dose curve; in most records, active means well fitted inhibition curve with a large enough effect; inconclusive means small, poorly fitted or top-dose-only effect, or effect the other way; inactive means no such curve, though single readings can be large or run the other way.",
  "data": [
    {"assay": "Confirmatory Assay for General miRNAs Modulators and/or Inhibitors/Activators of miR-21", "settings": "HeLa miR-21 FLuc reporter, luminescence, 48 h; activity change, negative = inhibition: at 38.3 µM (top of the series)", "source_text": "MLSCN Grant: 1 R21 NS059478-01 Assay Provider: Qihong Huang, The Wistar Institute NCGC Assay Overview: MicroRNAs (miRNAs) are endogenously encoded small (~20-25 nucleotides), nonprotein-coding RNAs that are involved in post-transcriptional repression of target messenger RNAs (mRNAs) (Le and Hannon, 2004). Estimated to be involved in the regulation of 30% of all protein-coding mRNAs (Filipowicz et al., 2008), miRNAs play a significant role in many biological processes including cellular differentiation and tissue development (Ghildiyal and Zamore, 2009).\nNCGC Assay Protocol Summary: Reagents: HeLa cells stably expressing firefly luciferase (FLuc) under the control of a CMV promoter (upstream) and a miR-21 binding sequence directly downstream of the gene. These cells endogenously express miR-21. Control compounds used were compound C3 (provided by collaborator), N6-phenyladenosine (MP Biomedicals, 0215379625), and DMSO. Assay Summary: 6uL of HeLa miR-21-FLuc cells in assay buffer (DMEM, Invitrogen #21063-029; 10% FBS, HyClone #SH30071.03) were dispensed at 2000cells/well (3.3 x 10^5 cells/mL) into Greiner solid-white TC-treated 1536-well plates using a Multidrop Combi (Thermo Fisher Scientific). Plates were incubated for one hour at 37 degree Celsius, 95% humidity, 5% CO2. These assay plates were then treated with 23nL of compound or DMSO using a Kalypsys pin tool, which allows for delivery of a 24-point titration of each compound to the assay plate, with a final compound concentration ranging from approximately 40uM to 5pM. Assay plates were then incubated for 48 hours. After incubation, plates were allowed to come to RT for one hour prior to delivery of 3uL of 3X luciferase detection reagent. After a 15 minute incubation to allow for cell lysis, luciferase activity was measured using a ViewLux CCD imager (PerkinElmer), with an average exposure time of 2-12 seconds. Keywords: NIH Roadmap, MLPCN, MLSMR, qHTS, miR-21, microRNA, firefly luciferase, FLuc.", "values": [
      {"smiles": "Cc1cccc(N2CCN(c3ncnc4onc(C)c34)CC2C)c1", "note": "(stereo not given)", "Potency": "inconclusive: 5.65 µM [activator, partial curve, poor fit]"},
      {"smiles": "COc1ccc(Nc2cc(C(=O)NCCCN3CCN(c4ccc(OC)cc4)CC3)c3ccccc3n2)cc1", "Potency": "inconclusive: 20 µM [activator, single point]"},
      {"smiles": "CCc1nonc1NC(=O)c1oc2cc(C)c(C)cc2c1C", "Potency": "inconclusive: 14.2 µM [falling, partial curve, poor fit]"},
      {"smiles": "Cc1cccc(-n2nnc(-c3nc(-c4cccs4)no3)c2N)c1C", "Potency": "inconclusive: 0.142 µM [falling, full curve, poor fit]"},
      {"smiles": "Nc1c(C(=O)Nc2ccccc2Br)sc2nc(-c3cccs3)ccc12", "activity change, negative = inhibition": "inactive: -42.2%"},
      {"smiles": "COc1ccccc1Nc1nn2c(=O)c3ccc(C(=O)NCCc4ccccc4)cc3nc2s1", "Potency": "inconclusive: 5.04 µM [activator, full curve, poor fit]"},
      {"smiles": "CC(C)S(=O)(=O)c1oc(-c2cccs2)nc1S(=O)(=O)c1ccc(F)cc1", "Potency": "inconclusive: 2.25 µM [activator, full curve]"},
      {"smiles": "CCCn1c(=O)c2sccc2n2c(CCCC(=O)Nc3ccc(Oc4ccc(Cl)cc4)cc3)nnc12", "Potency": "inconclusive: 12.6 µM [activator, partial curve]"},
      {"smiles": "COc1ccc(CNc2n[nH]c(-c3ccco3)n2)cc1OC", "activity change, negative = inhibition": "inactive: -2.25%"},
      {"smiles": "Cc1cccc(-n2nnc(-c3nc(-c4cccs4)no3)c2N)c1", "Potency": "active: 0.634 µM"},
      {"smiles": "Cc1cc(C)c2c(N)c(C(=O)Nc3ccccc3F)sc2n1", "Potency": "active: 1.42 µM"},
      {"smiles": "COc1cccc(NC(=O)CSc2nnc(-c3cccs3)o2)c1", "Potency": "active: 6.34 µM"},
      {"smiles": "COc1nc(Nc2cccc(C(F)(F)F)c2)nc(OC)n1", "Potency": "inconclusive: 14.2 µM [falling, partial curve, poor fit]"},
      {"smiles": "COCC(=O)Nc1c(C(=O)Nc2ccc3c(c2)OCCO3)oc2ccccc12", "Potency": "active: 0.449 µM"},
      {"smiles": "O=C(Nc1ccc(-c2nc3ccccc3[nH]2)cc1)c1ccc2c(c1)OCO2", "Potency": "inconclusive: 3.18 µM [falling, full curve, poor fit]"},
      {"smiles": "Cc1ccc(C(=O)Nc2ccc3c(c2)N(C)C(=O)c2ccccc2S3)cc1", "Potency": "inconclusive: 2.52 µM [activator, full curve]"},
      {"smiles": "COCc1cc(C)nc2sc(C(=O)OC(C)C)c(N)c12", "Potency": "inconclusive: 14.2 µM [falling, partial curve, poor fit]"},
      {"smiles": "Cc1ccc(-n2nnc(-c3nsc(NC(=O)c4ccccc4)n3)c2C)cc1", "Potency": "inconclusive: 3.56 µM [falling, partial curve]"},
      {"smiles": "Nc1c(-c2nc(-c3ccncc3)no2)nnn1CC(=O)Nc1ccccc1", "activity change, negative = inhibition": "inactive: -14.6%"},
      {"smiles": "Cc1cc(Nc2cccc(C(F)(F)F)c2)nc2ccc(NC(=O)c3cccnc3)cc12", "activity change, negative = inhibition": "inconclusive: 40% [activator]"},
      {"smiles": "C/C(=N\\NC(=O)c1ccncc1)c1ccc(NC(=O)c2ccc(Cl)cc2)cc1", "Potency": "inconclusive: 0.503 µM [falling, full curve]"},
      {"smiles": "Cc1cccc(-c2nsc(SCC(=O)Nc3ccc4c(c3)OCO4)n2)c1", "Potency": "inconclusive: 25.2 µM [falling, partial curve, poor fit]"},
      {"smiles": "CCCCN1C(C(=O)c2ccccc2)=C(OC(C)=O)c2ccccc2S1(=O)=O", "Potency": "inconclusive: 12.6 µM [activator, partial curve]"},
      {"smiles": "C/C(=N\\NC(=O)c1cccs1)c1ccncc1", "Potency": "inconclusive: 17.9 µM [falling, partial curve, poor fit]"},
      {"smiles": "CCS(=O)(=O)c1ncc(Cl)c(C(=O)N(Cc2ccccc2)c2ccc(OC)cc2)n1", "Potency": "inconclusive: 2.52 µM [activator, full curve]"},
      {"smiles": "COc1ccc(OCC(=O)Nc2ccc(-c3nc4cc(C)c(C)cc4o3)cc2)cc1", "Potency": "active: 0.4 µM"},
      {"smiles": "COc1ccccc1NC(=O)CSc1nnc(-c2ccccn2)o1", "Potency": "inconclusive: 3.56 µM [falling, full curve, poor fit]"},
      {"smiles": "Cc1ccc(C(=O)Nc2ccc3c(c2)N(C)C(=O)c2ccccc2S3)cc1F", "Potency": "inconclusive: 3.18 µM [activator, full curve]"},
      {"smiles": "Clc1ccc(-n2ncc3c(NCc4ccccn4)ncnc32)cc1", "Potency": "active: 4.49 µM"},
      {"smiles": "COc1ccc(CNc2nc(-c3ccco3)nn2C(=O)CC(C)C)cc1", "Potency": "active: 11.3 µM"},
      {"smiles": "O=C(CSc1nnc(-c2ccncc2)o1)Nc1nncs1", "activity change, negative = inhibition": "inactive: -6.3%"},
      {"smiles": "Cc1cccc(-c2nnc(SCC(=O)Nc3ccc(C)c(C)c3)o2)c1", "Potency": "active: 3.18 µM"},
      {"smiles": "N#Cc1cc2cc3c(cc2nc1SCC(=O)N1CCOCC1)OCO3", "Potency": "active: 1.13 µM"},
      {"smiles": "Cc1ccc(-n2nnc(-c3nc(-c4cccs4)no3)c2N)cc1C", "Potency": "inconclusive: 2 µM [falling, full curve]"},
      {"smiles": "O=C(c1ccc(Cl)cc1)n1nc(-c2ccccc2)nc1NCc1ccco1", "Potency": "inconclusive: 25.2 µM [falling, partial curve, poor fit]"},
      {"smiles": "Cc1ccc(-c2nc3cnccn3c2Nc2ccccc2)o1", "Potency": "inconclusive: 11.3 µM [falling, partial curve, poor fit]"},
      {"smiles": "Cc1cc(SCC(=O)Nc2nsc(-c3ccc(C(C)(C)C)cc3)n2)nc2ccccc12", "Potency": "inconclusive: 3.18 µM [falling, partial curve, poor fit]"},
      {"smiles": "CS(=O)(=O)c1ncc(Cl)c(C(=O)Nc2ccc3ccccc3c2)n1", "Potency": "inconclusive: 2.25 µM [activator, full curve, poor fit]"},
      {"smiles": "Cc1ccc(NC(=O)Cn2nnc(-c3nc(-c4ccc(Cl)cc4)no3)c2N)cc1C", "activity change, negative = inhibition": "inactive: -16.5%"},
      {"smiles": "CC1=C(c2ccc(C)c(C)c2)S(=O)(=O)N=C1N1CCC(C(=O)NCCc2ccc(Cl)cc2)CC1", "activity change, negative = inhibition": "inactive: 27.4%"}
    ]}
  ]
}
